Assay [1] concerns the target T1, endogenous mouse PirB (cortical neurons and brain extracts) (mouse) (UniProt P97484).
T1 sequence: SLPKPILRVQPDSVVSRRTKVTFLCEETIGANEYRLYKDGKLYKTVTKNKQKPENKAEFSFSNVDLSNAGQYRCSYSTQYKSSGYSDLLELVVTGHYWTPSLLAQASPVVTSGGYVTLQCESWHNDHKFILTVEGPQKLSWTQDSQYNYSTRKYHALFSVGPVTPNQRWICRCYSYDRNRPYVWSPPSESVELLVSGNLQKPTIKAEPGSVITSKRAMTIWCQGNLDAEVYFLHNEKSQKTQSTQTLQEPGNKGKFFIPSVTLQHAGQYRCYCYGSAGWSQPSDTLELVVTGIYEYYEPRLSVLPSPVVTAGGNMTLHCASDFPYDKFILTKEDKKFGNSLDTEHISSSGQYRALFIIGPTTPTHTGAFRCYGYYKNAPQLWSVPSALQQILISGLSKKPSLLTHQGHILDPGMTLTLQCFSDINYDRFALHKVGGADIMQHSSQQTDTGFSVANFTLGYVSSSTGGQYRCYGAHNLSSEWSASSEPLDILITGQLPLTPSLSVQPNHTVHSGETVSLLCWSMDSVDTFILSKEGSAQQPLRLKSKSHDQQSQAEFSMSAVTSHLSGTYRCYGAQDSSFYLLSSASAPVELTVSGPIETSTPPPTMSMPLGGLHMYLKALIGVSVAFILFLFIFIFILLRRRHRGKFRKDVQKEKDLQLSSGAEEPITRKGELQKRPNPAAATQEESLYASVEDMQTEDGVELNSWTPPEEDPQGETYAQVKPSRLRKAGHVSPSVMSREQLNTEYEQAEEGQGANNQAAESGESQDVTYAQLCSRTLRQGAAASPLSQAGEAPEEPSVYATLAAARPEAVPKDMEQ
Description: immunoprecipitation of PirB from mouse forebrain lysate (P30), Western blot for PP2C.

Assay [2] addresses T1, endogenous mouse PirB (cortical neurons and brain extracts) (mouse). Description: immunoprecipitation of PirB from mouse forebrain lysate (P30), Western blot for PP2B. (In general: A western blot detects proteins with antibodies after separation by electrophoresis.)

Results are given in words; binding and its absence hold for the method and conditions named. Binding can be weak; no strength is given.

For the substance “protein phosphatase PP2C (endogenous, mouse forebrain) (enzyme)”, the binding result in assay [1] was “binds”. In the case of “protein phosphatase PP2B/calcineurin (endogenous, mouse forebrain) (enzyme)”, in assay [2], the binding entry was “binds”.
